Experimental data reported in publication doi:10.1101/679936.
Results are given in words; binding and its absence hold for the method and conditions named. In cells and extracts the contact can be indirect. Some binding calls cover weakened binding; strength is not graded here. Where a sequence is shown, tags or fusion partners need not be part of it.

Key:
FLAG-SREBP1a = target: T1, FLAG-SREBP1a (UniProt P36956); assay: co-IP
T1 sequence: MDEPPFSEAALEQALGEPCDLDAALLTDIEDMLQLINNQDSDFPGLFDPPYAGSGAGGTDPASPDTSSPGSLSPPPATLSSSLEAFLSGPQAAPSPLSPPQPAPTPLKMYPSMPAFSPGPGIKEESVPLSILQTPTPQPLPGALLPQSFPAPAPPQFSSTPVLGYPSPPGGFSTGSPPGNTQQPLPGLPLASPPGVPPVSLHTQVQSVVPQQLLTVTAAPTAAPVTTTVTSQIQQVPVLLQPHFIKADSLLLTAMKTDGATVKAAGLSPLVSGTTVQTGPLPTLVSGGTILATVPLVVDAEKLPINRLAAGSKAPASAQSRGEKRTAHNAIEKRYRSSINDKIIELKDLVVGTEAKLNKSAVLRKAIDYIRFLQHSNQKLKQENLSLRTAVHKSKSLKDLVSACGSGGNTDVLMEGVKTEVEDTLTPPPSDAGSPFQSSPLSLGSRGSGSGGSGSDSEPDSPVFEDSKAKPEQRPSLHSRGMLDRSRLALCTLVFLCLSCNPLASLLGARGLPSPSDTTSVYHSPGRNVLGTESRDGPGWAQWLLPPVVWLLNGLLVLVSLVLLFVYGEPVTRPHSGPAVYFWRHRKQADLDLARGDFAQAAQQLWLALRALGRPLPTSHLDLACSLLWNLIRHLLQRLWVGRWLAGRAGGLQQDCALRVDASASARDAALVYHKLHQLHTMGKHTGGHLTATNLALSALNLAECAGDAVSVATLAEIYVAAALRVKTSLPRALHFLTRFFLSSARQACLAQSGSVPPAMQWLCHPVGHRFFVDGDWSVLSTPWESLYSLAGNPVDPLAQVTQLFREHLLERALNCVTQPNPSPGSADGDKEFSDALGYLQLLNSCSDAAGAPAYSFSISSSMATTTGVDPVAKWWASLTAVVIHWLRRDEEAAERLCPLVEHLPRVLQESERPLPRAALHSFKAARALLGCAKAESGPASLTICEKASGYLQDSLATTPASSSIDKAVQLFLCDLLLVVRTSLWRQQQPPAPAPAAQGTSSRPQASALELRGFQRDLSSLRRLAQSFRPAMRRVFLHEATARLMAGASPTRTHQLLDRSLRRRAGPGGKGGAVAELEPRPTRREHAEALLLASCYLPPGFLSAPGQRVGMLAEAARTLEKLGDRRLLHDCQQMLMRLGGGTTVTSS

[1] = target: T2, FLAG-SCAP C-term (hamster) (UniProt P97260); assay: co-IP
T2 sequence: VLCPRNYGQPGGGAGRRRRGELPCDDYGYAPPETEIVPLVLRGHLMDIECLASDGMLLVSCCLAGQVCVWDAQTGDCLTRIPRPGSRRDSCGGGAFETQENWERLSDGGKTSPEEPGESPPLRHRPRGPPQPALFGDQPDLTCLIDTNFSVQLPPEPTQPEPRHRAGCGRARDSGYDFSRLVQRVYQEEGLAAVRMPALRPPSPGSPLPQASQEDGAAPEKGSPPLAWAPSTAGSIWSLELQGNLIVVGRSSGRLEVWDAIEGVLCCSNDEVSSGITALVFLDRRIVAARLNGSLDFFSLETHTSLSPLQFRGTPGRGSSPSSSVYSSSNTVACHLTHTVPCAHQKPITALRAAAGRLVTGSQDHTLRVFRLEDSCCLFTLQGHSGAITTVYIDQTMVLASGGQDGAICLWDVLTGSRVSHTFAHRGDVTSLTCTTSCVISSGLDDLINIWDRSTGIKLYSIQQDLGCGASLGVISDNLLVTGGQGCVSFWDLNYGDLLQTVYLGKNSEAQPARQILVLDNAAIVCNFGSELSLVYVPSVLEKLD

binding (FLAG-SREBP1a): binds
binding [1]: binds weakly
B1: Sac1, endogenous in HEK 293T (protein, UniProt Q9NTJ5 1-587)
chain: MATAAYEQLKLHITPEKFYVEACDDGADDVLTIDRVSTEVTLAVKKDVPPSAVTRPIFGILGTIHLVAGNYLIVITKKIKVGEFFSHVVWKATDFDVLSYKKTMLHLTDIQLQDNKTFLAMLNHVLNVDGFYFSTTYDLTHTLQRLSNTSPEFQEMSLLERADQRFVWNGHLLRELSAQPEVHRFALPVLHGFITMHSCSINGKYFDWILISRRSCFRAGVRYYVRGIDSEGHAANFVETEQIVHYNGSKASFVQTRGSIPVFWSQRPNLKYKPLPQISKVANHMDGFQRHFDSQVIIYGKQVIINLINQKGSEKPLEQTFATMVSSLGSGMMRYIAFDFHKECKNMRWDRLSILLDQVAEMQDELSYFLVDSAGQVVANQEGVFRSNCMDCLDRTNVIQSLLARRSLQAQLQRLGVLHVGQKLEEQDEFEKIYKNAWADNANACAKQYAGTGALKTDFTRTGKRTHLGLIMDGWNSMIRYYKNNFSDGFRQDSIDLFLGNYSVDELESHSPLSVPRDWKFLALPIIMVVAFSMCIICLLMAGDTWTETLAYVLFWGVASIGTFFIILYNGKDFVDAPRLVQKEKID
